Experimental data: PubChem BioAssay AID652243 (Drosophila RNAi Screening Center, 2013)

Test: 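Knock-downs that decrease or increase androgen receptor reporter signal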 (primary screen)
System: Drosophila S2R+ cells
Knock-down reagent: long dsRNA against Drosophila genes
Timing: 72 h (48 h, then 24 h hormone)
Conditions: synthetic androgen R1881 at 10 nM for 24 h
Measurement: 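Per-well raw luminescence of the androgen-driven firefly reporter and of the Renilla control, two replicates each, without normalisation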
Scale: firefly reporter light: higher = more light from androgen-responsive reporter; Renilla control light: higher = more constitutive control signal (cell number, transfection)
Call rule: 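Hit when the log firefly-to-Renilla ratio dropped or increased by a fixed fold versus the mean of GFP or LacZ controls across duplicate plates; lowering cut given as 1.5 and as 3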
Meaning of the calls: active = hit: reporter lowered or raised; inactive = no hit
The deposit covers about 24,000 reagents; shown is an unselected part of those that have a named target and a result. Of all reagents, 246 (1%) were called active. 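Plates not normalised; calls are printed but the firefly/Renilla ratio behind them is not deposited; fold cut for lowering reported inconsistently.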 Raw values vary from plate to plate and are shown uncorrected. Entries without a mark were called inactive. The numbers tell different reagents against one gene apart. Reagent sequences are not shown. Not given: the amount of reagent.

no.	Gene	reagent	firefly reporter light, replicate 1	firefly reporter light, replicate 2	Renilla control light, replicate 1	Renilla control light, replicate 2
1	Ae2 (Anion exchanger 2)	1	1.40e5 (active)	2.06e5	1.72e6	2.90e6
2	Ae2 (Anion exchanger 2)	2	9.25e5	9.00e5	1.10e6	1.41e6
3	CG5561	1	1.02e5	1.71e5	7.50e5	1.03e6
4	CG8292	1	2.21e5	2.13e5	1.77e6	1.22e6
5	TrpRS (Tryptophanyl-tRNA synthetase)	1	99428	1.12e5	1.96e6	1.73e6
6	Psf3 (Partner of Sld Five 3)	1	4.54e5	5.77e5	3.37e6	4.25e6
7	Psf3 (Partner of Sld Five 3)	2	9.77e5	7.57e5	3.25e6	2.21e6
8	Der-2 (Derlin-2)	1	1.72e5	1.45e5	2.26e6	1.90e6
9	CG33228	1	1.15e6	9.65e5	2.32e6	1.70e6
10	RNaseX25 (Ribonuclease X25)	1	7.72e5	3.90e5	1.77e6	1.25e6
11	RNaseX25 (Ribonuclease X25)	2	8.23e5	7.00e5	1.31e6	1.71e6
12	CG3663	1	6.04e5	7.26e5	1.11e6	1.15e6
13	CG3663	2	5.56e5	5.69e5	8.83e5	5.79e5
14	mxt (mextli)	1	9.13e5	8.56e5	4.45e5	4.86e5
15	CG12811	1	2.35e5	1.77e5	3.13e6	3.51e6
16	BomS3 (Bomanin Short 3)	1	7.63e5	6.07e5	8.43e5	7.37e5
17	BomS3 (Bomanin Short 3)	2	4.47e5	4.36e5	8.53e5	8.01e5
18	CG12499	1	3.51e5	2.55e5	3.33e6	3.15e6
19	Mst84B (Male-specific transcript 84B)	1	1.37e5	93485	2.43e6	1.97e6
20	Mst84B (Male-specific transcript 84B)	2	2.90e5	2.65e5	4.76e5	7.52e5
21	CG14500	1	1.31e5	1.39e5	1.91e6	1.91e6
22	Gel (Gelsolin)	1	68423	62231	3.18e5	3.80e5
23	Gel (Gelsolin)	2	4.26e5	2.97e5	5.55e5	5.35e5
24	Ir94g (Ionotropic receptor 94g)	1	1.32e5	1.54e5	2.20e6	2.89e6
25	Ir94g (Ionotropic receptor 94g)	2	1.58e5	2.31e5	4.62e5	7.04e5

Taken from above:
Ae2 (Anion exchanger 2) #1, firefly reporter light, replicate 1 → 1.40e5 (active)
For “firefly reporter light, replicate 1”, CG12499 is entered as 3.51e5
